# Laboratory results published in PMC8764063.
# By UniProt entry, the sequences of proteins in these tests, tags left out. Where a name states a change or a piece, a line headed by the entry shows the natural chain unless it says otherwise. Chains listed by the source or under a name are the forms on record and can include a tag or linker.
# UniProt P09874: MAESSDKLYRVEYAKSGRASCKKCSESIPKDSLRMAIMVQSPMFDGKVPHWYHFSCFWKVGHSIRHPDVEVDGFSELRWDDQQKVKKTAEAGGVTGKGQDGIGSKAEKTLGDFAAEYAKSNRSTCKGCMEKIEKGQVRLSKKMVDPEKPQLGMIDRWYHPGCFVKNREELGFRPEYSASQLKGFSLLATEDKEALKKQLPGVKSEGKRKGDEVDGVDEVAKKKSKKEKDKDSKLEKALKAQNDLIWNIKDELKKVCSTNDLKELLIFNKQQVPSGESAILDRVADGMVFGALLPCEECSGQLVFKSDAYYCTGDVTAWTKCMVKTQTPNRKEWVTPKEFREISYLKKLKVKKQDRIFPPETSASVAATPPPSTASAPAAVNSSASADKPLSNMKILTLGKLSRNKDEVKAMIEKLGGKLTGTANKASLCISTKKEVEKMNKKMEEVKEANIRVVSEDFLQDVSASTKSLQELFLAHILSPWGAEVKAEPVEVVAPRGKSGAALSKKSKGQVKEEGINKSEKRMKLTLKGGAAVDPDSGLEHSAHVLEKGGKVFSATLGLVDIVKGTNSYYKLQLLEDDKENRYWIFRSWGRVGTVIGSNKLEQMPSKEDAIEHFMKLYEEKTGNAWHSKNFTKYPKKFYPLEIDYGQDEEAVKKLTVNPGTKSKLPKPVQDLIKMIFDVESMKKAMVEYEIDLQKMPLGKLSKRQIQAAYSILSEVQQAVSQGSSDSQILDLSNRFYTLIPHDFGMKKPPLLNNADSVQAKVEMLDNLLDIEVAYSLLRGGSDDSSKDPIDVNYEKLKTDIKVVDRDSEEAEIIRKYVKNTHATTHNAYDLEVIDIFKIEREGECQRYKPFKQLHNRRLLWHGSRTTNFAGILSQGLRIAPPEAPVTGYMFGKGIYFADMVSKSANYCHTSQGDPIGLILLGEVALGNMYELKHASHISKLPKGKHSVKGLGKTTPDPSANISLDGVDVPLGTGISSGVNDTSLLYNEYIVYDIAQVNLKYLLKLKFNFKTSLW
# SFB-tagged mutant tPARP1 (SFB-tPARP1 E988A) (P09874, form named): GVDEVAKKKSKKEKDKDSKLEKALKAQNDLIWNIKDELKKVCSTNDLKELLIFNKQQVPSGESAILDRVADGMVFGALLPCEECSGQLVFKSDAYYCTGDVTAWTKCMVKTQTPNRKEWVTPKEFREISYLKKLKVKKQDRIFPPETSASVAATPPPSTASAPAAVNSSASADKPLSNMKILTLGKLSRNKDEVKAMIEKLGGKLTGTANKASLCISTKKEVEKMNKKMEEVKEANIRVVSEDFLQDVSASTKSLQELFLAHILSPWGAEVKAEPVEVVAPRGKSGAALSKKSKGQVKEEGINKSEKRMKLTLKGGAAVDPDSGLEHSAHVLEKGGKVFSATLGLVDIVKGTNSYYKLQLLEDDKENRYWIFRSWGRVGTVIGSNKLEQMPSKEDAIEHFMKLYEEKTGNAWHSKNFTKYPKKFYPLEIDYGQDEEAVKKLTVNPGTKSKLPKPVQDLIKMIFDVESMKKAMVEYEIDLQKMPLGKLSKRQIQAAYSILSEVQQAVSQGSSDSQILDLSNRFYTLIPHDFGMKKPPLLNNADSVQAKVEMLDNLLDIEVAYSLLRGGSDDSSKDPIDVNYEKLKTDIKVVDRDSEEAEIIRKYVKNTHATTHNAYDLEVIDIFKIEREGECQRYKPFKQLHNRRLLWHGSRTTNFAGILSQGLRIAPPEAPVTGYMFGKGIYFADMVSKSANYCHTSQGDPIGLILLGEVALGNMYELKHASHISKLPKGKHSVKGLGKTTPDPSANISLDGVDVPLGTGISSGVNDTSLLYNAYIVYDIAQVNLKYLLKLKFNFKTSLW
# UniProt Q9Y530: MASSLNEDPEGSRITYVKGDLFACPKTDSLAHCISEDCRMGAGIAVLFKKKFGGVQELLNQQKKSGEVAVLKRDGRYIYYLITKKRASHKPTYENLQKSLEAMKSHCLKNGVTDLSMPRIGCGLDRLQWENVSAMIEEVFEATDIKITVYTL
# UniProt O14802: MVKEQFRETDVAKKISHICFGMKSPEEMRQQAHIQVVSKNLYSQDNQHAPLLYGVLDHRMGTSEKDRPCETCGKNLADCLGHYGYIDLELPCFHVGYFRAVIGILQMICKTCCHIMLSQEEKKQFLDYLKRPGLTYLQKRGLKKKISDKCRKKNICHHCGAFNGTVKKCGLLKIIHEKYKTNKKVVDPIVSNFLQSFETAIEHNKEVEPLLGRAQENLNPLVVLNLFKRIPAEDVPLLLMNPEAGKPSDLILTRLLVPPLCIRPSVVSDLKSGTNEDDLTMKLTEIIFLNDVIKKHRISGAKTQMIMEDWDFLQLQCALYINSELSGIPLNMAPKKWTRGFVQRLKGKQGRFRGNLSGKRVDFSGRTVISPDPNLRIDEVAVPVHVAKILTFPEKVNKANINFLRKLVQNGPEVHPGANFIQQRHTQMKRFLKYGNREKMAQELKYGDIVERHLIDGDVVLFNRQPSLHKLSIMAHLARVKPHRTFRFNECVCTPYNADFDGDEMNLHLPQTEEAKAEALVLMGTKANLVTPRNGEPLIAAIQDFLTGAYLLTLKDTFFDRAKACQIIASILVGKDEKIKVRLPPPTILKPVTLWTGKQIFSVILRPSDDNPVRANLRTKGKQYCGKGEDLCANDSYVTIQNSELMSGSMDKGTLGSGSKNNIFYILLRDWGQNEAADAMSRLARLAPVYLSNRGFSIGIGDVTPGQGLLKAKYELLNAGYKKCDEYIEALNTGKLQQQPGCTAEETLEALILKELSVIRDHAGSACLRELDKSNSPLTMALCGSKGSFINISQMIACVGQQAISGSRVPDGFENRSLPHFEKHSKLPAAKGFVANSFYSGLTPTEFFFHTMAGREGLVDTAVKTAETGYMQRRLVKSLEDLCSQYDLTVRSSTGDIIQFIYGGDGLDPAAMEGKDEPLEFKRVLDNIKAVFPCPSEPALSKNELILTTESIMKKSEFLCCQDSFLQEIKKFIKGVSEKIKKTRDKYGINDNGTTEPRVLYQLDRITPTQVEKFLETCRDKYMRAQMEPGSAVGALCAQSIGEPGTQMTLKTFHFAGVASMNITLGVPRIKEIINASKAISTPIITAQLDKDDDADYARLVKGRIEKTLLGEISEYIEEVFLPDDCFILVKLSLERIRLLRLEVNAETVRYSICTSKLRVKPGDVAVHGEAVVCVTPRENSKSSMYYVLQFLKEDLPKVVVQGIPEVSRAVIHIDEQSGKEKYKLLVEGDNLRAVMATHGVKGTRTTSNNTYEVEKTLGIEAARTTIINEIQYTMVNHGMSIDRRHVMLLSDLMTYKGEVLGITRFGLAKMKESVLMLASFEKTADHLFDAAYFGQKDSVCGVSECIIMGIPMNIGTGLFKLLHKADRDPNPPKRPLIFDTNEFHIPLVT
# UniProt Q9NW08: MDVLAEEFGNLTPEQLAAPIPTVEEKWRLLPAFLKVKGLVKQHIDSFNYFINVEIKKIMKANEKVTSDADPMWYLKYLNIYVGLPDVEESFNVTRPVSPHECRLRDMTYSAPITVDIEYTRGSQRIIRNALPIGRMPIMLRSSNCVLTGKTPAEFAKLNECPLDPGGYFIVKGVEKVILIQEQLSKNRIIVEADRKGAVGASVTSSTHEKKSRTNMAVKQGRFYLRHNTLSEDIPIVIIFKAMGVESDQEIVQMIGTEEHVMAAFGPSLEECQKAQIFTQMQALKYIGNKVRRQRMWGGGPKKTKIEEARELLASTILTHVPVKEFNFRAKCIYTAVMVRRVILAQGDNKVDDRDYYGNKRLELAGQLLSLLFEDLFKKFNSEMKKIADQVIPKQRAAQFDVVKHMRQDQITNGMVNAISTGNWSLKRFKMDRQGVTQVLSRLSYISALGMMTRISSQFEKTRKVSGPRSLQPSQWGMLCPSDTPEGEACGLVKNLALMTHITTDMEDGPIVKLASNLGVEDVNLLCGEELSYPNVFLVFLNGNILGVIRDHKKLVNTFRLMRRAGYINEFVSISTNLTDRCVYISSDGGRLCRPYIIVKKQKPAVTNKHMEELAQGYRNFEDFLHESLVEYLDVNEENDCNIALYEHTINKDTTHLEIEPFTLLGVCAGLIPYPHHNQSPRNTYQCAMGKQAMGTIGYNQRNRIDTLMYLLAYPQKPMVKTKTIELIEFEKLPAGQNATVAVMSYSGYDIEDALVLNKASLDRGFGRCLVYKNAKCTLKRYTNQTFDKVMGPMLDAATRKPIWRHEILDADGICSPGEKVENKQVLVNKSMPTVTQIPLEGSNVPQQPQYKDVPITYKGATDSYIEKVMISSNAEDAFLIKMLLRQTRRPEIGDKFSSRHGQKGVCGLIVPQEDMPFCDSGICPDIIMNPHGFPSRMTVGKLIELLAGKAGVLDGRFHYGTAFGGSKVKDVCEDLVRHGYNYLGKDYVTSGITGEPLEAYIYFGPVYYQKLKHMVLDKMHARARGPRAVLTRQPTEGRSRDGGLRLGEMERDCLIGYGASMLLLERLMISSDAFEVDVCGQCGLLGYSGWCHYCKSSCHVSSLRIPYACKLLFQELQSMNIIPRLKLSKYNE
# UniProt Q9H1D9: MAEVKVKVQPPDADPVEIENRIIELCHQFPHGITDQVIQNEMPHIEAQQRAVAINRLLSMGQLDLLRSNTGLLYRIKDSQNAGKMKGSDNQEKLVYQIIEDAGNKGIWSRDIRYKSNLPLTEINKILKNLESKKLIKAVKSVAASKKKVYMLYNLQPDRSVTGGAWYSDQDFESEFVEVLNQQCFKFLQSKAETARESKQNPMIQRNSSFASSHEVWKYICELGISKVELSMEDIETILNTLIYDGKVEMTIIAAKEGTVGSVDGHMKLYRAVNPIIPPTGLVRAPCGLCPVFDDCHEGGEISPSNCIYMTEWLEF
# Results are given in words; binding and its absence hold for the method and conditions named. Binding seen in cells or lysates may run through a third protein. These calls come from enrichment with a bait or labelling near it, and not all partners need be listed. For part of these data: A no says only that the protein was not detected with the bait. For part of these data: Sequences can lack the tags named with a protein.
# How the values were obtained:
# Test in all cases: affinity purification with mass spectrometry; SFB-tagged bait stably expressed in 293T cells; NETN100 lysate, soluble fraction; streptavidin beads 2 h at 4 °C, biotin elution, S-beads 2 h at 4 °C, four washes; SDS-PAGE, in-gel trypsin digestion, LC-MS/MS
# [1] = biological target: SFB-tagged mutant tPARP1 (SFB-tPARP1 E988A) (human) (UniProt P09874)
# [2] = biological target: SFB-tagged mutant PARP1 (SFB-PARP1 E988A) (human) (UniProt P09874)
# [3] = biological target: SFB-tagged mutant TARG1 (SFB-TARG1 D125A) (UniProt Q9Y530)
# [4] = biological target: T1, SFB-tagged mutant PARG (SFB-PARG E756A) (UniProt Q86W56)
# T1 sequence: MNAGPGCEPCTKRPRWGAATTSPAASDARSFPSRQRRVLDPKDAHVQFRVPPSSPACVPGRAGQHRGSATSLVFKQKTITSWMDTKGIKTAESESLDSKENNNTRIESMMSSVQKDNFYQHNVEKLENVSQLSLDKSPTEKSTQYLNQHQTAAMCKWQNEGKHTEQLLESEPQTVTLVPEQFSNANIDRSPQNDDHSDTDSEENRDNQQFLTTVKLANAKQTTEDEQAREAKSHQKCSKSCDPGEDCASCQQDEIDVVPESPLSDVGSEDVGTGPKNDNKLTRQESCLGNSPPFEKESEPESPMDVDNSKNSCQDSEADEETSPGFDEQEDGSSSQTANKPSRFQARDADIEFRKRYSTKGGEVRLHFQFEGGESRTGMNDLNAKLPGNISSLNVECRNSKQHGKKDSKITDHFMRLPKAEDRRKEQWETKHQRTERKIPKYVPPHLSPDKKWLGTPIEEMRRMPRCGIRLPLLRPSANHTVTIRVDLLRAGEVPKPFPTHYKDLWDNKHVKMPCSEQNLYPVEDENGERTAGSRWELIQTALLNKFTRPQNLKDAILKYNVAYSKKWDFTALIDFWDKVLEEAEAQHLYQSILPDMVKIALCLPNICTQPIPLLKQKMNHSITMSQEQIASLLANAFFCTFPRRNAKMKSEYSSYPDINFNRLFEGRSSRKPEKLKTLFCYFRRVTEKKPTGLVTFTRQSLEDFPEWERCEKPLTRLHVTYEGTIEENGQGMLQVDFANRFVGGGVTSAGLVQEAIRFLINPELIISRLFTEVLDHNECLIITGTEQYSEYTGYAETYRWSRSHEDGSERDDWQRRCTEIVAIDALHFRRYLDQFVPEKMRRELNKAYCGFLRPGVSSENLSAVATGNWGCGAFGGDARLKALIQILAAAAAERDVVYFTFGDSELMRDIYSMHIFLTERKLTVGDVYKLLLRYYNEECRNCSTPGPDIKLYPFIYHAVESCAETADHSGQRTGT
Substance,binding [1],binding [2],binding [3],binding [4]
"POLR3A, subunit of the RNA polymerase III (Pol III) complex, endogenous (from UniProt O14802 1-1390)",binds,no binding,binds,no binding
"POLR3B, subunit of the RNA polymerase III (Pol III) complex, endogenous (from UniProt Q9NW08 1-1133)",binds,no binding,binds,no binding
"POLR3F, subunit of the RNA polymerase III (Pol III) complex, endogenous (from UniProt Q9H1D9 1-316)",binds,no binding,binds,no binding
